Test results published in patent publication US20170189504A1, “NOVEL PEPTIDES AND COMBINATION OF PEPTIDES FOR USE IN IMMUNOTHERAPY AGAINST VARIOUS CANCERS” (immatics biotechnologies GmbH, priority 2015, published 2017).

Tests used:
HLA-A*02 = assay: Identification and relative LC-MS quantitation of HLA-A*02-presented tumor-associated peptides on tissue samples (presentation profiles, Tables 13A, 13B, 15, FIG. 1); set-up: species or system human; key to Presentation score NHL / Presentation score CLL / Presentation score BRCA / Presentation score AML / Presentation score GB / Presentation score NSCLC / Presentation score GBC_CCC / Presentation score UEC / Presentation score MEL / Presentation score OSCAR / Presentation score GC / Presentation score UBC / Presentation score OC / Presentation score RCC / Presentation score CRC / Presentation score PCA / Presentation score HCC / Presentation score PC / Presentation score SCLC: specifically presented on tumors (++++); very highly over-presented on tumors compared to a panel of normal tissues (+++); highly over-presented on tumors compared to a panel of normal tissues (++); over-presented on tumors compared to a panel of normal tissues (+); conditions: for Presentation score NHL: non-Hodgkin lymphoma (N = 18) vs panel of normal tissues (N = 262); for Presentation score NSCLC: non-small cell lung cancer (N = 90) vs panel of normal tissues (N = 262); for Peptide Presentation on cancer entities: HLA-A*02-binding tumor-associated peptides
source genes (mRNA) [1] = assay: Gene and exon expression of source genes, TCGA tumor samples compared with normal tissue samples (Lonsdale, 2013) (Table 17); set-up: species or system human; conditions: for Over-expression category of source gene (target coverage), BLCA: BLCA = Bladder urothelial carcinoma (N = 408); for Over-expression category of source gene (target coverage), BRCA: BRCA = Breast cancer (N = 1104), tumors more than 2-fold above highest 75% percentile of normal tissues; for Over-expression category of source gene (target coverage), COAD: COAD = Colon and rectal adenocarcinoma (N = 462); for Over-expression category of source gene (target coverage), DLBC: DLBC = Lymphoid neoplasm diffuse large B-cell lymphoma (N = 48); for Over-expression category of source gene (target coverage), ESCA: ESCA = Esophageal cancer (N = 185); for Over-expression category of source gene (target coverage), GBM: GBM = Glioblastoma multiforme (N = 169); for Over-expression category of source gene (target coverage), LAML: LAML = Acute Myeloid Leukemia (N = 173); for Over-expression category of source gene (target coverage), LGG: LGG = Lower grade glioma (N = 534); for Over-expression category of source gene (target coverage), LUAD: LUAD = Lung adenocarcinoma (N = 517); for Over-expression category of source gene (target coverage), LUSC: LUSC = Lung squamous cell carcinoma (N = 503); for Over-expression category of source gene (target coverage), OV: OV = Ovarian serous cystadenocarcinoma (N = 309); for Over-expression category of source gene (target coverage), READ: READ = Colon and rectal adenocarcinoma (N = 167); for Over-expression category of source gene (target coverage), SKCM: SKCM = Skin cutaneous melanoma (N = 473); for Over-expression category of source gene (target coverage), STAD: STAD = Stomach adenocarcinoma (N = 415); for Over-expression category of source gene (target coverage), UCEC: UCEC = Uterine corpus endometrial carcinoma (N = 546)
source genes (mRNA) [2] = assay: Expression profiling of source genes by in-house RNASeq of tumor and normal tissues (Table 18, FIG. 2); set-up: species or system human; key: very highly over-expressed in tumors compared to a panel of normal tissues (+++); highly over-expressed in tumors compared to a panel of normal tissues (++); over-expressed in tumors compared to a panel of normal tissues (+); conditions: source gene of peptide; for Expression score NHL: non-Hodgkin lymphoma (N = 10) vs panel of normal tissues; for Expression score NSCLC: non-small cell lung cancer (N = 11) vs panel of normal tissues; for Expression score OC: ovarian cancer (N = 12) vs panel of normal tissues; for Expression score SCLC: small cell lung cancer (N = 10) vs panel of normal tissues
[3] = Table 13A, cancer entities on which the peptide was found presented
[4] = Table 13B, presentation on additional cancer entities

| Substance | Presentation score NHL (HLA-A*02; HLA-A*02 peptides) | Presentation score NSCLC (HLA-A*02; HLA-A*02 peptides) | Peptide Presentation on cancer entities (HLA-A*02; [3]) | Peptide Presentation on cancer entities (HLA-A*02; [4]) | Over-expression category of source gene (target coverage), BLCA (source genes (mRNA) [1]; same cutoff) | Over-expression category of source gene (target coverage), BRCA (source genes (mRNA) [1]) | Over-expression category of source gene (target coverage), COAD (source genes (mRNA) [1]; same cutoff) | Over-expression category of source gene (target coverage), DLBC (source genes (mRNA) [1]; same cutoff) | Over-expression category of source gene (target coverage), ESCA (source genes (mRNA) [1]; same cutoff) | Over-expression category of source gene (target coverage), GBM (source genes (mRNA) [1]; same cutoff) | Over-expression category of source gene (target coverage), LAML (source genes (mRNA) [1]; same cutoff) | Over-expression category of source gene (target coverage), LGG (source genes (mRNA) [1]; same cutoff) | Over-expression category of source gene (target coverage), LUAD (source genes (mRNA) [1]; same cutoff) | Over-expression category of source gene (target coverage), LUSC (source genes (mRNA) [1]; same cutoff) | Over-expression category of source gene (target coverage), OV (source genes (mRNA) [1]; same cutoff) | Over-expression category of source gene (target coverage), READ (source genes (mRNA) [1]; same cutoff) | Over-expression category of source gene (target coverage), SKCM (source genes (mRNA) [1]; same cutoff) | Over-expression category of source gene (target coverage), STAD (source genes (mRNA) [1]; same cutoff) | Over-expression category of source gene (target coverage), UCEC (source genes (mRNA) [1]; same cutoff) | Expression score NHL (source genes (mRNA) [2]) | further results |
| --- | --- | --- | --- | --- | --- | --- | --- | --- | --- | --- | --- | --- | --- | --- | --- | --- | --- | --- | --- | --- | --- |
| 236: peptide found in NCAPD3 (gene looked up) (STIAILNSV; listed as Homo sapiens) [compound 236] | ++++ | ++++ | GB, GC, NSCLC, PCA, CLL, OSCAR, NHL | MEL | B (>= 20% of tumors above the cutoff, but <50%) | B (>= 20% of tumors above the cutoff, but <50%) | A (>=50% of tumors above the cutoff) | A (>=50% of tumors above the cutoff) | B (>= 20% of tumors above the cutoff, but <50%) | B (>= 20% of tumors above the cutoff, but <50%) | A (>=50% of tumors above the cutoff) | C (>=5% of tumors above the cutoff, but <20%) | C (>=5% of tumors above the cutoff, but <20%) | B (>= 20% of tumors above the cutoff, but <50%) | B (>= 20% of tumors above the cutoff, but <50%) | A (>=50% of tumors above the cutoff) | C (>=5% of tumors above the cutoff, but <20%) | B (>= 20% of tumors above the cutoff, but <50%) | B (>= 20% of tumors above the cutoff, but <50%) | + | Presentation score CLL (HLA-A*02; HLA-A*02 peptides, chronic lymphocytic leukemia (N = 17) vs panel of normal tissues (N = 262)): ++++; Presentation score OSCAR (HLA-A*02; HLA-A*02 peptides, esophageal cancer, including cancer of the gastric-esophageal junction (N = 17) vs panel of normal tissues (N = 262)): ++++; Presentation score GC (HLA-A*02; HLA-A*02 peptides, gastric cancer (N = 29) vs panel of normal tissues (N = 262)): ++++; Presentation score GB (HLA-A*02; HLA-A*02 peptides, glioblastoma (N = 41) vs panel of normal tissues (N = 262)): ++++; Presentation score PCA (HLA-A*02; HLA-A*02 peptides, prostate cancer and benign prostate hyperplasia (N = 39) vs panel of normal tissues (N = 262)): ++++; Over-expression category of source gene (target coverage), PRAD (source genes (mRNA) [1]; PRAD = Prostate adenocarcinoma (N = 498), same cutoff): A (>=50% of tumors above the cutoff); Expression score NSCLC (source genes (mRNA) [2]): +; Expression score OC (source genes (mRNA) [2]): +; Expression score PCA (source genes (mRNA) [2]; prostate cancer and benign prostate hyperplasia (N = 5) vs panel of normal tissues): +++; Expression score SCLC (source genes (mRNA) [2]): + |
| 239: peptide found in MCM4 (gene looked up) (KMNESTRSV; listed as Homo sapiens) [compound 239] | ++++ | ++++ | NSCLC, GBC_CCC, NHL | GB, CRC | B (>= 20% of tumors above the cutoff, but <50%) | B (>= 20% of tumors above the cutoff, but <50%) | A (>=50% of tumors above the cutoff) | B (>= 20% of tumors above the cutoff, but <50%) | A (>=50% of tumors above the cutoff) | B (>= 20% of tumors above the cutoff, but <50%) | A (>=50% of tumors above the cutoff) | C (>=5% of tumors above the cutoff, but <20%) | C (>=5% of tumors above the cutoff, but <20%) | A (>=50% of tumors above the cutoff) | B (>= 20% of tumors above the cutoff, but <50%) | A (>=50% of tumors above the cutoff) | B (>= 20% of tumors above the cutoff, but <50%) | B (>= 20% of tumors above the cutoff, but <50%) | B (>= 20% of tumors above the cutoff, but <50%) | + | Presentation score GBC_CCC (HLA-A*02; HLA-A*02 peptides, gallbladder adenocarcinoma and cholangiocarcinoma (N = 6) vs panel of normal tissues (N = 262)): ++++; Expression score BRCA (source genes (mRNA) [2]; BRCA tumors vs panel of normal tissues): +; Expression score AML (source genes (mRNA) [2]; acute myeloid leukemia (N = 11) vs panel of normal tissues): +; Expression score CRC (source genes (mRNA) [2]; colorectal cancer (N = 20) vs panel of normal tissues): +; Expression score OSCAR (source genes (mRNA) [2]; esophageal cancer incl. gastric-esophageal junction (N = 11) vs panel of normal tissues): +; Expression score GB (source genes (mRNA) [2]; glioblastoma (N = 24) vs panel of normal tissues): +; Expression score NSCLC (source genes (mRNA) [2]): +; Expression score OC (source genes (mRNA) [2]): +; Expression score SCLC (source genes (mRNA) [2]): ++; Expression score UBC (source genes (mRNA) [2]; urinary bladder cancer (N = 10) vs panel of normal tissues): + |

For part of these data: Expression values are those of the mRNA of the gene that encodes the peptide; a gene is named only where it was looked up.
